Values from PubChem BioAssay AID493246 (Drosophila RNAi Screening Center, 2011)
Purpose: 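Identify essential fly genes by loss of cell viability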 (primary screen). Cells: Drosophila Kc and S2R+ cells. Knock-down reagent: long dsRNA against Drosophila genes. Read-out: 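Cell number per well after knock-down, printed as raw plate values; calls were based on per-plate z-scores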. Reading the numbers: Kc cell number and S2R+ cell number: higher = more cells remaining. Rule for the call: 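Active when the per-plate z-score of cell number is 3 or more in the direction of fewer cells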.
The screen tested about 21,000 reagents; below is a random part of those with a known target gene and a result. Over the whole deposit, 429 (2%) were called active. 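Values are raw and not normalised between plates; calls rest on per-plate z-scores that were not deposited.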 Reagents against one gene are numbered here. A plus sign joins genes that one reagent is predicted to hit. The record does not give: the amount of reagent, the time to read-out.

gene knocked down | reagent no. | Kc cell number, rep 1 | Kc cell number, rep 2 | S2R+ cell number, rep 1 | S2R+ cell number, rep 2 | outcome
CG12974 | 1 | 1.51e6 | 1.62e6 | 1.18e6 | 1.36e6 | inactive
mahe | 1 | 5.38e5 | – | 8.24e5 | – | inactive
cass | 1 | 1.22e6 | 1.28e6 | 8.90e5 | 1.04e6 | inactive
CG13117 | 1 | 1.79e6 | 1.80e6 | 1.18e6 | 1.33e6 | inactive
Gyc89Da | 1 | 1.55e6 | 1.55e6 | 1.06e6 | 9.90e5 | inactive
CG2310 | 1 | 1.62e6 | 1.73e6 | 1.05e6 | 1.12e6 | inactive
NimB5 | 1 | 1.59e6 | 1.67e6 | 1.21e6 | 1.39e6 | inactive
cdi | 1 | 1.52e6 | 1.56e6 | 1.21e6 | 1.26e6 | inactive
CG42586 + CG31775 | 1 | 1.52e6 | 1.62e6 | 9.03e5 | 1.07e6 | inactive
CG34106 | 1 | 1.52e6 | 1.53e6 | 9.34e5 | 1.16e6 | inactive
Mdh1 (retired record) | 1 | 1.82e6 | 1.85e6 | 1.17e6 | 1.34e6 | inactive
Oatp26F | 1 | 1.46e6 | 1.38e6 | 1.15e6 | 1.30e6 | inactive
Oatp26F | 2 | 1.53e6 | 1.50e6 | 1.19e6 | 1.31e6 | inactive
Oatp26F | 3 | 1.50e6 | 1.41e6 | 1.15e6 | 1.30e6 | inactive
Uggt | 1 | 1.46e6 | 1.54e6 | 1.30e6 | 1.39e6 | inactive
Eig71Eg | 1 | 1.40e6 | 1.52e6 | 1.22e6 | 1.31e6 | inactive
Sodh2 | 1 | 1.69e6 | 1.89e6 | 1.33e6 | 1.40e6 | inactive
CG13049 | 1 | 1.38e6 | 1.40e6 | 1.31e6 | 1.36e6 | inactive
Gs1l | 1 | 1.46e6 | 1.41e6 | 1.12e6 | 1.27e6 | inactive
CG5098 | 1 | 1.33e6 | 1.38e6 | 1.13e6 | 1.17e6 | inactive
dod | 1 | 1.56e6 | 1.51e6 | 1.04e6 | 1.17e6 | inactive
Eglp4 | 1 | 1.52e6 | 1.55e6 | 1.22e6 | 1.31e6 | inactive
CG14650 | 1 | 1.85e6 | 1.88e6 | 1.61e6 | 1.72e6 | inactive
CG12521 | 1 | 1.33e6 | 1.44e6 | 1.18e6 | 1.23e6 | inactive
CG3984 | 1 | 1.35e6 | 1.50e6 | 9.98e5 | 1.15e6 | inactive
lectin-37Db | 1 | 1.48e6 | 1.56e6 | 1.25e6 | 4.66e5 | inactive
CG33158 | 1 | 1.55e6 | 1.79e6 | 1.41e6 | 1.47e6 | inactive
CG33158 | 2 | 1.35e6 | 1.38e6 | 1.23e6 | 1.35e6 | inactive
Ir94c | 1 | 1.62e6 | 1.55e6 | 1.08e6 | 1.04e6 | inactive
CG18128 | 1 | 1.56e6 | 1.63e6 | 1.37e6 | 1.47e6 | inactive
E(spl)m7-HLH | 1 | 1.35e6 | 1.45e6 | 9.91e5 | 1.14e6 | inactive
Rph | 1 | 1.46e6 | 1.40e6 | 9.63e5 | 1.03e6 | inactive
MED17 | 1 | 1.59e6 | 1.71e6 | 1.15e6 | 1.25e6 | inactive
Adgf-B | 1 | 1.40e6 | 1.50e6 | 1.27e6 | 1.36e6 | inactive
Lipt2 | 1 | 1.31e6 | 1.32e6 | 1.08e6 | 1.15e6 | inactive
mRpL55 | 1 | 1.56e6 | 1.48e6 | 9.11e5 | 1.07e6 | inactive
Hsp27 | 1 | 1.35e6 | 1.33e6 | 1.32e6 | 1.21e6 | inactive
Adgf-C | 1 | 1.25e6 | 1.30e6 | 9.99e5 | 1.16e6 | inactive
CG10000 | 1 | 1.48e6 | 1.50e6 | 1.05e6 | 1.13e6 | inactive
CG13727 | 1 | 1.45e6 | 1.46e6 | 1.22e6 | 1.34e6 | inactive

Limited to “S2R+ cell number, rep 2” (2 entries from above):
CG2310: 1.12e6
NimB5: 1.39e6
